No constants are given. Whether binding was seen depends on the method and setting. Some binding calls cover weakened binding; strength is not graded here. Blank lines part the entries; values can stand above or below the binder they belong to.
Target: human recombinant secPHEX (pure soluble form of PHEX) (human) (UniProt P78562)
Experiment: continuous fluorimetric hydrolysis kinetics; affinity inferred from Km

Amino acid sequences for entries named in this document (tags omitted). Residues count along the entry.
UniProt P78562, residues 46-749: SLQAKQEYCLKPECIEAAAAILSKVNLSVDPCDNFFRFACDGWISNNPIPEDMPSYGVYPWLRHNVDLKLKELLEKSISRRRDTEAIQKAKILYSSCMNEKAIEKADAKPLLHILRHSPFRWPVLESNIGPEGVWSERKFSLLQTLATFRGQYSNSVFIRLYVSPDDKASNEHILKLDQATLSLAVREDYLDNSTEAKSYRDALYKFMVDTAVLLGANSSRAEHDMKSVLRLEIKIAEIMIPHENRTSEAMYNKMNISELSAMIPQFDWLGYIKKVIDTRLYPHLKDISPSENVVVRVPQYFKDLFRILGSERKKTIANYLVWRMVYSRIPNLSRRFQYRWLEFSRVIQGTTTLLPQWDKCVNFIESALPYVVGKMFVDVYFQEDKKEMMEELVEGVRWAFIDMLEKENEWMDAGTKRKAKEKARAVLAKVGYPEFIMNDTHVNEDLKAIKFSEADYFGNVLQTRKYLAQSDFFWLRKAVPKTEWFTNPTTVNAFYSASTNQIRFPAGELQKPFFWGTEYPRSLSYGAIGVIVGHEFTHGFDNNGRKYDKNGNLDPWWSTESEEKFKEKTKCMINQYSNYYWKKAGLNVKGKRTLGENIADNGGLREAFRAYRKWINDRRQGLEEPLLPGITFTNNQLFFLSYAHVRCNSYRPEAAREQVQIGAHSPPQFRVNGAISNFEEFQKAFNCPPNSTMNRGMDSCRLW

binding: binds
B3: Abz-R506-RDDSSEQ-EDDnp (peptide)
peptide: RRDDSSEQ
modifications: N-terminal Abz; EDDnp attached to the C-terminal Gln

binding: binds
B5: Abz-R175-…-EDDnp (peptide)
peptide: RRHTRSAEDDSERQ
modifications: N-terminal Abz; EDDnp attached to the C-terminal Gln

The next lines start with the binder.

B1: Abz-D125-HLSDTSTQ-EDDnp (peptide)
peptide: DHLSDTSTQ
modifications: N-terminal Abz; EDDnp attached to the C-terminal Gln
binding: binds

B2: Abz-G386-SSDAAEQ-EDDnp (peptide)
peptide: GSSDAAEQ
modifications: N-terminal Abz; EDDnp attached to the C-terminal Gln
binding: binds

B4: Abz-A110-WLDSGVQ-EDDnp (peptide)
peptide: AWLDSGVQ
modifications: N-terminal Abz; EDDnp attached to the C-terminal Gln
binding: binds

B6: Abz-L134-ELDSRQ-EDDnp (peptide)
peptide: LELDSRQ
modifications: N-terminal Abz; EDDnp attached to the C-terminal Gln
binding: binds
